The supplement of paper PMC10077471
Whole data set: some 1,900 compounds, median “excess over highest single agent (ExcessHSA) synergy score, 6x6 matrix” near -83, cut for the lowest 2% near -370. This is one part of the list.

These compounds were tested on NCI-H446 (assay: excess over highest single agent (ExcessHSA) synergy score, 6x6 matrix; higher = less synergy (more negative = stronger synergy)). Conditions: 72 h; CellTiter-Glo viability.

SMILES	excess over highest single agent
Nc1ccc(S(=O)(=O)Nc2ccnn2-c2ccccc2)cc1 + Cc1sc2c(c1C)C(c1ccc(Cl)cc1)=N[C@@H](CC(=O)OC(C)(C)C)c1nnc(C)n1-2 [NCGC00250412-19]	297
CC[C@@]1([C@@H]2O[C@@H]([C@H]3O[C@@](O)(CO)[C@H](C)C[C@@H]3C)C[C@@H]2C)CC[C@H]([C@]2(C)CC[C@]3(C[C@H](O)[C@@H](C)[C@@H]([C@@H](C)[C@@H](OC)[C@H](C)C(=O)O)O3)O2)O1 + Cc1sc2c(c1C)C(c1ccc(Cl)cc1)=N[C@@H](CC(=O)OC(C)(C)C)c1nnc(C)n1-2 [NCGC00250412-19]	-273
C[C@@H](N)c1ccc(C(=O)Nc2ccnc3[nH]ccc23)cc1 + Cc1sc2c(c1C)C(c1ccc(Cl)cc1)=N[C@@H](CC(=O)OC(C)(C)C)c1nnc(C)n1-2 [NCGC00250412-19]	125
CN1CCN(CCOc2cc(OC3CCOCC3)c3c(Nc4c(Cl)ccc5c4OCO5)ncnc3c2)CC1 + Cc1sc2c(c1C)C(c1ccc(Cl)cc1)=N[C@@H](CC(=O)OC(C)(C)C)c1nnc(C)n1-2 [NCGC00250412-19]	-56.9
CC1Cc2ccccc2N1NC(=O)c1ccc(Cl)c(S(N)(=O)=O)c1 (stereo unspecified) + Cc1sc2c(c1C)C(c1ccc(Cl)cc1)=N[C@@H](CC(=O)OC(C)(C)C)c1nnc(C)n1-2 [NCGC00250412-19]	-188
CN(C1CCc2c(c3ccccc3n2CC(=O)O)C1)S(=O)(=O)c1ccc(F)cc1 (stereo unspecified) + Cc1sc2c(c1C)C(c1ccc(Cl)cc1)=N[C@@H](CC(=O)OC(C)(C)C)c1nnc(C)n1-2 [NCGC00250412-19]	-115
CC1=C(CO)C(=O)O[C@@H]([C@@H](C)[C@H]2CC[C@H]3[C@@H]4C[C@H]5O[C@]56[C@@H](O)C=CC(=O)[C@]6(C)[C@H]4CC[C@]23C)C1 + Cc1sc2c(c1C)C(c1ccc(Cl)cc1)=N[C@@H](CC(=O)OC(C)(C)C)c1nnc(C)n1-2 [NCGC00250412-19]	-151
Cc1cccc(C#Cc2ccccc2)n1 + Cc1sc2c(c1C)C(c1ccc(Cl)cc1)=N[C@@H](CC(=O)OC(C)(C)C)c1nnc(C)n1-2 [NCGC00250412-19]	-114
CC(C)CC(=O)N[C@H](C(=O)N[C@H](C(=O)N[C@@H](CC(C)C)[C@@H](O)CC(=O)N[C@@H](C)C(=O)N[C@@H](CC(C)C)[C@@H](O)CC(=O)O)C(C)C)C(C)C + Cc1sc2c(c1C)C(c1ccc(Cl)cc1)=N[C@@H](CC(=O)OC(C)(C)C)c1nnc(C)n1-2 [NCGC00250412-19]	-213
O=C(/C=C/c1ccc(CN(CCO)CCc2c[nH]c3ccccc23)cc1)NO + Cc1sc2c(c1C)C(c1ccc(Cl)cc1)=N[C@@H](CC(=O)OC(C)(C)C)c1nnc(C)n1-2 [NCGC00250412-19]	-177
Cc1nc(N)ncc1-c1nc(N2CCOCC2)c2sc(C(C)(C)O)cc2n1 + Cc1sc2c(c1C)C(c1ccc(Cl)cc1)=N[C@@H](CC(=O)OC(C)(C)C)c1nnc(C)n1-2 [NCGC00250412-19]	-337
CC1=C[C@@H]2[C@H]([C@@H](O)C[C@@]3(C)[C@H]2C[C@@H](C)[C@]3(O)C(=O)CO)[C@@]2(C)Cc3cnn(-c4ccccc4)c3C=C12 + Cc1sc2c(c1C)C(c1ccc(Cl)cc1)=N[C@@H](CC(=O)OC(C)(C)C)c1nnc(C)n1-2 [NCGC00250412-19]	-73.1
O=C(O)[C@@H](c1ccc(OCc2ccc3ccccc3n2)cc1)C1CCCC1 + Cc1sc2c(c1C)C(c1ccc(Cl)cc1)=N[C@@H](CC(=O)OC(C)(C)C)c1nnc(C)n1-2 [NCGC00250412-19]	-31.3
COc1ccc(S(=O)(=O)N(C(C)=O)c2ccccc2/C=C/c2cc[n+]([O-])cc2)cc1 + Cc1sc2c(c1C)C(c1ccc(Cl)cc1)=N[C@@H](CC(=O)OC(C)(C)C)c1nnc(C)n1-2 [NCGC00250412-19]	-347
C[N+]1(C)[C@@H]2C[C@@H](OC(=O)[C@H](CO)c3ccccc3)C[C@H]1[C@@H]1O[C@@H]12 + Cc1sc2c(c1C)C(c1ccc(Cl)cc1)=N[C@@H](CC(=O)OC(C)(C)C)c1nnc(C)n1-2 [NCGC00250412-19]	-73.8
O=C(NOC[C@H](O)CO)c1ccc(F)c(F)c1Nc1ccc(I)cc1F + Cc1sc2c(c1C)C(c1ccc(Cl)cc1)=N[C@@H](CC(=O)OC(C)(C)C)c1nnc(C)n1-2 [NCGC00250412-19]	-276
Cc1ccccn1.N.[Cl-].[Cl-].[Pt+2] + Cc1sc2c(c1C)C(c1ccc(Cl)cc1)=N[C@@H](CC(=O)OC(C)(C)C)c1nnc(C)n1-2 [NCGC00250412-19]	123
Cc1cc([C@@H](C)Nc2ccccc2C(=O)O)c2nc(N3CCOCC3)cc(=O)n2c1 + Cc1sc2c(c1C)C(c1ccc(Cl)cc1)=N[C@@H](CC(=O)OC(C)(C)C)c1nnc(C)n1-2 [NCGC00250412-19]	-344

SMILES	excess over highest single agent
CC(C)=CCC/C(C)=C/CC/C(C)=C/CC/C(C)=C/CC/C(C)=C/CC/C(C)=C/CC/C(C)=C/CC/C(C)=C/CC/C(C)=C/CO + Cc1sc2c(c1C)C(c1ccc(Cl)cc1)=N[C@@H](CC(=O)OC(C)(C)C)c1nnc(C)n1-2 [NCGC00250412-19]	-200
O=C(O)/C=C/c1ccc(Cn2ccnc2)cc1 + Cc1sc2c(c1C)C(c1ccc(Cl)cc1)=N[C@@H](CC(=O)OC(C)(C)C)c1nnc(C)n1-2 [NCGC00250412-19]	-116
COc1cc2nccc(Oc3ccc(NC(=O)C4(C(=O)Nc5ccc(F)cc5)CC4)cc3)c2cc1OC + Cc1sc2c(c1C)C(c1ccc(Cl)cc1)=N[C@@H](CC(=O)OC(C)(C)C)c1nnc(C)n1-2 [NCGC00250412-19]	86.3
CNC(=O)c1cc(COc2nnc(Nc3ccc(Cl)cc3)c3ccoc23)ccn1 + Cc1sc2c(c1C)C(c1ccc(Cl)cc1)=N[C@@H](CC(=O)OC(C)(C)C)c1nnc(C)n1-2 [NCGC00250412-19]	1.95
CCCc1nc(C)c2c(=O)nc(-c3cc(S(=O)(=O)N4CCN(CC)CC4)ccc3OCC)[nH]n12 + Cc1sc2c(c1C)C(c1ccc(Cl)cc1)=N[C@@H](CC(=O)OC(C)(C)C)c1nnc(C)n1-2 [NCGC00250412-19]	-25
CCCCc1ccc(NS(=O)(=O)c2ccc(C)c(C(=O)N3CCN(c4cccc(C)c4C)CC3)c2)cc1 + Cc1sc2c(c1C)C(c1ccc(Cl)cc1)=N[C@@H](CC(=O)OC(C)(C)C)c1nnc(C)n1-2 [NCGC00250412-19]	-18.6
Oc1ccc(OCc2ccccc2)cc1 + Cc1sc2c(c1C)C(c1ccc(Cl)cc1)=N[C@@H](CC(=O)OC(C)(C)C)c1nnc(C)n1-2 [NCGC00250412-19]	16.8
N=c1ccn2c(n1)O[C@H]1[C@@H](O)[C@@H](CO)O[C@H]12 + Cc1sc2c(c1C)C(c1ccc(Cl)cc1)=N[C@@H](CC(=O)OC(C)(C)C)c1nnc(C)n1-2 [NCGC00250412-19]	-340
N=C1NC(=O)N2CC12 (stereo unspecified) + Cc1sc2c(c1C)C(c1ccc(Cl)cc1)=N[C@@H](CC(=O)OC(C)(C)C)c1nnc(C)n1-2 [NCGC00250412-19]	-57
C[C@H]1C[C@H]2[C@@H]3CCC4=CC(=O)C=C[C@]4(C)[C@@]3(F)[C@@H](O)C[C@]2(C)[C@@]1(O)C(=O)CO + Cc1sc2c(c1C)C(c1ccc(Cl)cc1)=N[C@@H](CC(=O)OC(C)(C)C)c1nnc(C)n1-2 [NCGC00250412-19]	99.7
CN(C)CCOc1ccc(/C(=C(/CCCl)c2ccccc2)c2ccccc2)cc1 + Cc1sc2c(c1C)C(c1ccc(Cl)cc1)=N[C@@H](CC(=O)OC(C)(C)C)c1nnc(C)n1-2 [NCGC00250412-19]	-182
CCN1CCN(C(=O)N[C@@H](C(=O)N[C@@H]2C(=O)N3C(C(=O)O)=C(CSc4nnnn4C)CS[C@H]23)c2ccc(O)cc2)C(=O)C1=O + Cc1sc2c(c1C)C(c1ccc(Cl)cc1)=N[C@@H](CC(=O)OC(C)(C)C)c1nnc(C)n1-2 [NCGC00250412-19]	-38.3
CC(C)(Cc1ccc2ccccc2c1)NC[C@@H](O)COc1cccc(Cl)c1C#N + Cc1sc2c(c1C)C(c1ccc(Cl)cc1)=N[C@@H](CC(=O)OC(C)(C)C)c1nnc(C)n1-2 [NCGC00250412-19]	-82.2
O=C1Nc2ccc(I)cc2C1=Cc1cc(Br)c(O)c(Br)c1 + Cc1sc2c(c1C)C(c1ccc(Cl)cc1)=N[C@@H](CC(=O)OC(C)(C)C)c1nnc(C)n1-2 [NCGC00250412-19]	-45.4
O=C(NCCO[N+](=O)[O-])c1cccnc1 + Cc1sc2c(c1C)C(c1ccc(Cl)cc1)=N[C@@H](CC(=O)OC(C)(C)C)c1nnc(C)n1-2 [NCGC00250412-19]	-51
COC(=O)C1=C(C)NC(C)=C(C(=O)OCCCN2CCC(c3ccccc3)(c3ccccc3)CC2)[C@H]1c1cccc([N+](=O)[O-])c1 + Cc1sc2c(c1C)C(c1ccc(Cl)cc1)=N[C@@H](CC(=O)OC(C)(C)C)c1nnc(C)n1-2 [NCGC00250412-19]	-92
Cc1cc(Nc2ncnc3ccc(-c4ccc(CNCCS(C)(=O)=O)o4)cc23)ccc1Oc1ccn2ncnc2c1 + Cc1sc2c(c1C)C(c1ccc(Cl)cc1)=N[C@@H](CC(=O)OC(C)(C)C)c1nnc(C)n1-2 [NCGC00250412-19]	-16.7
CO[C@@]12[C@H](COC(N)=O)C3=C(C(=O)C(C)=C(N)C3=O)N1C[C@@H]1N[C@@H]12 + Cc1sc2c(c1C)C(c1ccc(Cl)cc1)=N[C@@H](CC(=O)OC(C)(C)C)c1nnc(C)n1-2 [NCGC00250412-19]	-205

Some of the entries so far, with each value named.
CC1=C[C@@H]2[C@H]([C@@H](O)C[C@@]3(C)[C@H]2C[C@@H](C)[C@]3(O)C(=O)CO)[C@@]2(C)Cc3cnn(-c4ccccc4)c3C=C12 + Cc1sc2c(c1C)C(c1ccc(Cl)cc1)=N[C@@H](CC(=O)OC(C)(C)C)c1nnc(C)n1-2 [NCGC00250412-19]
  excess over highest single agent: -73.1
O=C(O)[C@@H](c1ccc(OCc2ccc3ccccc3n2)cc1)C1CCCC1 + Cc1sc2c(c1C)C(c1ccc(Cl)cc1)=N[C@@H](CC(=O)OC(C)(C)C)c1nnc(C)n1-2 [NCGC00250412-19]
  excess over highest single agent: -31.3
